Source: article doi:10.1101/2021.08.17.452482
Like-named read-outs stand apart in the source and are kept apart here. Results are given in words; binding and its absence hold for the method and conditions named. Binding seen in cells or lysates may run through a third protein. Some binding calls cover weakened binding; strength is not graded here.

Chains of the proteins cited; added tags and fusions are not shown.
UniProt P24385: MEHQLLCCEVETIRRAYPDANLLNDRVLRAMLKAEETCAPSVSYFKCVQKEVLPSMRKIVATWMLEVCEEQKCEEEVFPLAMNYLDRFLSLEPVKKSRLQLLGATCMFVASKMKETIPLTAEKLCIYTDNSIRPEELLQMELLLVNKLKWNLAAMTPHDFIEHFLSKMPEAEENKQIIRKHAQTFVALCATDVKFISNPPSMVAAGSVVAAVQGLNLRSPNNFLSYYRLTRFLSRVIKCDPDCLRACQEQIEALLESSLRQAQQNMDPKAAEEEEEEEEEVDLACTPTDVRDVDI
UniProt P38936: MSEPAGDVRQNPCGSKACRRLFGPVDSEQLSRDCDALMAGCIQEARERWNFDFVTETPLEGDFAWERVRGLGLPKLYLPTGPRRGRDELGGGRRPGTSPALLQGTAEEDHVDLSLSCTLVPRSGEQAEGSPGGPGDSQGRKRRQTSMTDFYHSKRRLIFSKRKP
UniProt P46527: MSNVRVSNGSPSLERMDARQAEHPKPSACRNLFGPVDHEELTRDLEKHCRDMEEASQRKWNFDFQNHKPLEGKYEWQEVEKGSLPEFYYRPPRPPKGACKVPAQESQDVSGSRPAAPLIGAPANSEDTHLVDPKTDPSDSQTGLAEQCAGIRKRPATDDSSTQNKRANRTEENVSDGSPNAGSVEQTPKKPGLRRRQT

Assays:
Assay in all cases: co-IP
[1] = molecular target: Cyclin D1 (human (endogenous in HDF, U2OS, HCT-116)) (UniProt P24385)
[2] = molecular target: Cyclin D1 (human (endogenous in HDF, U2OS, HCT-116)) (UniProt P24385); remark: listed apart in the source
[3] = molecular target: Cyclin D1 (human (endogenous in HDF, U2OS, HCT-116)) (UniProt P24385); remark: listed apart in the source
[4] = molecular target: CDK inhibitor p21^Waf1/Cip1 (human (endogenous in HDF, U2OS, HCT-116)) (UniProt P38936)

Substance: CDK inhibitor p27^Kip1 (from UniProt P46527 1-198)
- binding [1]: binds

Substance: CDK inhibitor p21^Waf1/Cip1 (from UniProt P38936 1-164)
- binding [2]: binds
- binding [3]: binds
- binding [1]: binds

Substance: Cyclin D1 (from UniProt P24385 1-295)
- binding [4]: binds
